This assay has as its target Macrophage migration inhibitory factor (rat (endogenous in primary joint capsule fibroblasts of SD rats)) (UniProt P30904). The assay is described as follows: co-IP; total lysates (500 ug) of primary rat JFs treated with MIF for 24 h; precleared with protein A plus G-Sepharose, incubated with anti-MIF or anti-CD74 antibody at 4 C, protein A plus G-Sepharose; immunoblot with anti-MIF or anti-CD74.

Chains of the proteins cited; added tags and fusions are not shown.
UniProt P30904: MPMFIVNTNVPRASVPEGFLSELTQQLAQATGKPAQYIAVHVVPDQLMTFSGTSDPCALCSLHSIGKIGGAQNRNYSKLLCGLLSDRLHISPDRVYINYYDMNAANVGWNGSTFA

These are yes or no findings as the source states them, for the method shown. In cells and extracts the contact can be indirect. Some binding calls cover weakened binding; strength is not graded here.

Results on 1 molecule are retold here after article PMC7950233.

B1: CD74 receptor (receptor, UniProt P10247 1-280)
chain: MDDQRDLISNHEQLPILGQRARAPESNCNRGVLYTSVSVLVALLLAGQATTAYFLYQQQGRLDKLTVTSQNLQLENLRMKLPKSAKPVSPMRMATPLLMRPLSMDNMLQAPVKNVTKYGNMTQDHVMHLLTKSGPVNYPQLKGSFPENLKHLKNSMNGLDWKVFESWMKQWLLFEMSKNSLEEKQPTQTPPKVLTKCQEEVSHIPDVHPGAFRPKCDENGNYMPLQCHGSTGYCWCVFPNGTEVPHTKSRGRHNCSEPLDMEDPSSGLGVTKQDMGQMFL
Take B1: the binding entry is recorded as “binds”.
